# Measured values as given in the supplement of paper PMC4604168 (melanoma cell lines).
# The list shows a part of the results. Single values are uncertain, as repeats are few or missing.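 The apoptosis fraction was the count of cleaved-PARP antibody-stained nuclei relative to all DNA-stained nuclei, imaged in 1,536-well plates. Screening doses were set so most cells survived, and baseline and induced cleaved-PARP levels vary greatly across cell lines.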
# Assays:
# Experiment in all cases: cleaved PARP positive nuclei fraction relative to DMSO control; melanoma cells; higher = more apoptosis
# Conditions in all cases: library dose: low library concentration; 72 h
# [1] = tested on: 501Mel
# [2] = tested on: A101D
# [3] = tested on: A2058
# [4] = tested on: C32
# [5] = tested on: CBRC008 (line from a melanoma biopsy)
# [6] = tested on: CBRC014 (line from a melanoma biopsy)
# [7] = tested on: CBRC016 (line from a melanoma biopsy)
# [8] = tested on: CBRC017 (line from a melanoma biopsy)
# [9] = tested on: COLO792
# [10] = tested on: COLO800
# [11] = tested on: COLO829
# [12] = tested on: G361
# [13] = tested on: IPC-298
# [14] = tested on: IST-MEL1
# [15] = tested on: LB2518-MEL
# [16] = tested on: LOXIMVI
SMILES,cleaved PARP positive nuclei fraction [1] [%],cleaved PARP positive nuclei fraction [2] [%],cleaved PARP positive nuclei fraction [3] [%],cleaved PARP positive nuclei fraction [4] [%],cleaved PARP positive nuclei fraction [5] [%],cleaved PARP positive nuclei fraction [6] [%],cleaved PARP positive nuclei fraction [7] [%],cleaved PARP positive nuclei fraction [8] [%],cleaved PARP positive nuclei fraction [9] [%],cleaved PARP positive nuclei fraction [10] [%],cleaved PARP positive nuclei fraction [11] [%],cleaved PARP positive nuclei fraction [12] [%],cleaved PARP positive nuclei fraction [13] [%],cleaved PARP positive nuclei fraction [14] [%],cleaved PARP positive nuclei fraction [15] [%],cleaved PARP positive nuclei fraction [16] [%]
"CC[C@]1(O)C[C@H]2CN(CCc3c([nH]c4ccccc34)[C@@](C(=O)OC)(c3cc4c(cc3OC)N(C=O)[C@H]3[C@@](O)(C(=O)OC)[C@H](OC(C)=O)[C@]5(CC)C=CCN6CC[C@]43[C@@H]65)C2)C1 [vincristine] + Oc1cc(-c2nc(-c3ccccc3)[nH]c2-c2ccncc2)ccc1Cl [L779450] (first compound 0.0001 µM, partner dose 0.2 µM)",160,17.2,427,98.3,218,268,22.4,92.5,136,143,142,160,54.8,59.4,339,47.1
"O=C(/C=C/c1cccnc1)NCCCCC1CCN(C(=O)c2ccccc2)CC1 + O=C(Nc1ccccc1)c1cc([N+](=O)[O-])ccc1Cl [GW9662] (first compound 0.01 µM, partner dose 2 µM)",284,27.9,104,73.7,3840,93.7,596,364,463,400,262,3700,264,79.8,217,177
"Cc1cc(Nc2cc(N3CCN(C)CC3)nc(Sc3ccc(NC(=O)C4CC4)cc3)n2)n[nH]1 [Tozasertib] + COC(=O)c1sccc1S(=O)(=O)Nc1ccc(Nc2ccccc2)cc1OC [GSK0660] (first compound 0.006 µM, partner dose 1 µM)",70.7,29.5,54.7,116,50.2,96.4,72.8,99.1,113,106,159,148,142,68.1,140,146
"Cc1cn(-c2cc(NC(=O)c3ccc(C)c(Nc4nccc(-c5cccnc5)n4)c3)cc(C(F)(F)F)c2)cn1 [nilotinib] + CC(C)CCN1c2nc(Nc3cc(F)c(O)c(F)c3)ncc2N(C)C(=O)C1C [BID1870] (first compound 0.2 µM, partner dose 0.2 µM)",73.4,24.3,107,52.2,155,102,83.9,94,42,126,99.6,96.8,45,43,71,124
"Cc1ccc(Nc2nccc(N(C)c3ccc4c(C)n(C)nc4c3)n2)cc1S(N)(=O)=O [Pazopanib] + COc1ccc(COc2ccc(Cc3cnc(N)nc3N)cc2OC)cc1 [GW2580] (first compound 0.4 µM, partner dose 1 µM)",74.6,19.2,78.9,18.3,259,87.8,93.5,219,172,61.6,121,101,121,72,125,56
"Cc1cn(-c2cc(NC(=O)c3ccc(C)c(Nc4nccc(-c5cccnc5)n4)c3)cc(C(F)(F)F)c2)cn1 [nilotinib] + Cc1cc([N+](=O)[O-])ccc1NS(=O)(=O)c1cc(Cl)ccc1Cl [FH535] (first compound 0.2 µM, partner dose 1 µM)",61.2,34.2,94.5,77.1,249,111,326,176,135,105,53.6,148,47.6,122,136,73.2
"N#CC[C@H](C1CCCC1)n1cc(-c2ncnc3[nH]ccc23)cn1 [ruxolitinib] + COC(=O)c1sccc1S(=O)(=O)Nc1ccc(Nc2ccccc2)cc1OC [GSK0660] (first compound 1 µM, partner dose 1 µM)",76,17,138,76,85.1,86.9,28.3,94.1,71,144,76.6,134,61.6,62.1,28.5,77.9
"Cc1ccc(Nc2nccc(N(C)c3ccc4c(C)n(C)nc4c3)n2)cc1S(N)(=O)=O [Pazopanib] + O=S(=O)(c1ccccc1)N(CC(F)(F)F)c1ccc(C(O)(C(F)(F)F)C(F)(F)F)cc1 [T0901317] (first compound 0.4 µM, partner dose 1.4 µM)",84,14.7,48.7,40.5,51.5,114,56.1,178,112,73.1,122,74.1,172,140,62.9,95.5
"O=c1[nH]nc(Sc2ncc([N+](=O)[O-])s2)n1-c1ccc2c(c1)OCCO2 + COc1ccc(-c2ccc3c(N4CCOCC4)nc(N4C[C@@H](C)O[C@@H](C)C4)nc3n2)cc1CO [KU0063794] (first compound 0.2 µM, partner dose 0.02 µM)",34.6,29.9,46.4,118,106,158,52,93.6,78,97.6,95.6,50.1,91.5,132,70.8,94.4
"N#CC[C@H](C1CCCC1)n1cc(-c2ncnc3[nH]ccc23)cn1 [ruxolitinib] + CCCCCCCCCCCC1=C(O)C(=O)C=C(O)C1=O [Embelin] (first compound 1 µM, partner dose 1.2 µM)",63.8,23.7,149,27,90.5,95.4,97.3,88.1,164,36.2,81.9,96.2,62.1,246,109,85.9
"Cc1cc(Nc2cc(N3CCN(C)CC3)nc(Sc3ccc(NC(=O)C4CC4)cc3)n2)n[nH]1 [Tozasertib] + O=C(O)C(=O)Nc1sc2c(c1C(=O)O)CCNC2 [TCS401] (first compound 0.006 µM, partner dose 1.66667 µM)",58.4,15.9,74.2,168,39.6,72.4,59.9,114,79,137,502,82.8,91.4,56.2,88.4,86.2
"N#CC[C@H](C1CCCC1)n1cc(-c2ncnc3[nH]ccc23)cn1 [ruxolitinib] + COc1cc(N2CCC(N3CCN(C)CC3)CC2)ccc1Nc1ncc(Cl)c(Nc2ccccc2S(=O)(=O)C(C)C)n1 [NVP-TAE684] (first compound 1 µM, partner dose 0.08 µM)",62.6,49.5,104,65.2,157,82.8,95,108,148,35.7,70.1,184,51.3,203,60.4,62.6
"Cc1ccc(Nc2nccc(N(C)c3ccc4c(C)n(C)nc4c3)n2)cc1S(N)(=O)=O [Pazopanib] + Cc1cc([N+](=O)[O-])ccc1NS(=O)(=O)c1cc(Cl)ccc1Cl [FH535] (first compound 0.4 µM, partner dose 1 µM)",144,34.2,22.5,141,570,122,1120,142,88.3,77.9,76.1,130,126,120,86.1,138
"COc1cc([C@@H]2c3cc4c(cc3[C@@H](O[C@@H]3O[C@@H]5CO[C@@H](C)O[C@H]5[C@H](O)[C@H]3O)[C@H]3COC(=O)[C@H]23)OCO4)cc(OC)c1O [etoposide] + CCN(CC)CCCCNc1ncc2cc(-c3cc(OC)cc(OC)c3)c(NC(=O)NC(C)(C)C)nc2n1 [PD173074] (first compound 0.02 µM, partner dose 0.1 µM)",61.7,22.2,43.6,81.8,178,92.5,47,90.5,94,147,59,112,88.1,88.6,32.5,246
"O=C(Nc1cc(C(F)(F)F)cc(C(F)(F)F)c1)c1cc(Cl)ccc1O + Oc1nc(-c2ccc(C(F)(F)F)cc2)nc2c1CSCC2 [XAV939] (first compound 0.016 µM, partner dose 2 µM)",125,70.5,76.8,140,50.4,76.3,123,87.4,23.2,90.6,147,54.8,38.4,123,235,99.4
"Cc1cc(Nc2cc(N3CCN(C)CC3)nc(Sc3ccc(NC(=O)C4CC4)cc3)n2)n[nH]1 [Tozasertib] + CCCCCCCCCCCC1=C(O)C(=O)C=C(O)C1=O [Embelin] (first compound 0.006 µM, partner dose 1.2 µM)",52.8,13.8,82,34.6,46.4,84.6,129,93.4,91.1,46.9,166,103,99.6,94.4,81.5,32.9
"CC[C@]1(O)C[C@H]2CN(CCc3c([nH]c4ccccc34)[C@@](C(=O)OC)(c3cc4c(cc3OC)N(C=O)[C@H]3[C@@](O)(C(=O)OC)[C@H](OC(C)=O)[C@]5(CC)C=CCN6CC[C@]43[C@@H]65)C2)C1 [vincristine] + COc1ccc(COc2ccc(Cc3cnc(N)nc3N)cc2OC)cc1 [GW2580] (first compound 0.0001 µM, partner dose 1 µM)",75.8,29.9,65.5,92.2,95.9,75.9,20.9,113,140,74,132,183,86.2,134,59.1,222
"Cc1cc(Nc2cc(N3CCN(C)CC3)nc(Sc3ccc(NC(=O)C4CC4)cc3)n2)n[nH]1 [Tozasertib] + COc1ccc(COc2ccc(Cc3cnc(N)nc3N)cc2OC)cc1 [GW2580] (first compound 0.006 µM, partner dose 1 µM)",70.8,20.8,196,102,86.7,99.3,54.6,106,77.8,276,72.1,123,62.4,62.7,51.7,68.5

# Random excerpt: 2 entries already listed, in no set order.
SMILES,cleaved PARP positive nuclei fraction [1] [%],cleaved PARP positive nuclei fraction [2] [%],cleaved PARP positive nuclei fraction [3] [%],cleaved PARP positive nuclei fraction [4] [%],cleaved PARP positive nuclei fraction [5] [%],cleaved PARP positive nuclei fraction [6] [%],cleaved PARP positive nuclei fraction [7] [%],cleaved PARP positive nuclei fraction [8] [%],cleaved PARP positive nuclei fraction [9] [%],cleaved PARP positive nuclei fraction [10] [%],cleaved PARP positive nuclei fraction [11] [%],cleaved PARP positive nuclei fraction [12] [%],cleaved PARP positive nuclei fraction [13] [%],cleaved PARP positive nuclei fraction [14] [%],cleaved PARP positive nuclei fraction [15] [%],cleaved PARP positive nuclei fraction [16] [%]
"COc1cc([C@@H]2c3cc4c(cc3[C@@H](O[C@@H]3O[C@@H]5CO[C@@H](C)O[C@H]5[C@H](O)[C@H]3O)[C@H]3COC(=O)[C@H]23)OCO4)cc(OC)c1O [etoposide] + CCN(CC)CCCCNc1ncc2cc(-c3cc(OC)cc(OC)c3)c(NC(=O)NC(C)(C)C)nc2n1 [PD173074] (first compound 0.02 µM, partner dose 0.1 µM)",61.7,22.2,43.6,81.8,178,92.5,47,90.5,94,147,59,112,88.1,88.6,32.5,246
"Cc1cc(Nc2cc(N3CCN(C)CC3)nc(Sc3ccc(NC(=O)C4CC4)cc3)n2)n[nH]1 [Tozasertib] + O=C(O)C(=O)Nc1sc2c(c1C(=O)O)CCNC2 [TCS401] (first compound 0.006 µM, partner dose 1.66667 µM)",58.4,15.9,74.2,168,39.6,72.4,59.9,114,79,137,502,82.8,91.4,56.2,88.4,86.2
